Screen size: about 350,000 compounds; about 6,000 (1.7%) were called active. This list was built around the results that the source calls inconclusive (neither active nor inactive); the mix of calls is not that of the screen. Cut-off read from the data, not from the text of the source: active = CPE inhibition above about 20% (passing the limit was not always enough); inconclusive = no clear call, values can overlap the other calls; tested in BHK-21 cells.
experiment: protection of cells from dengue 2 killing – plate reader, single concentration, primary screen (AID 651640); details: DENV2-infected cells, cytopathic effect rescue, at 9.99 µM, stronger effect = higher value;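 note: 0% = median of neutral control wells and 100% = median of positive control wells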

| Compound | CPE inhibition |
| --- | --- |
| NC(=O)NN=C1CCn2cccc21 | inconclusive: 34.6% |
| C[C@H](CO)N1C[C@H](C)[C@@H](CN(C)Cc2cccnc2)Oc2cc(-c3ccccc3F)ccc2S1(=O)=O | active: 46.1% |
| CC(C)c1ccc(N(C(=O)CNC(=O)c2ccco2)C(C(=O)NC2CCCC2)c2cccnc2)cc1 (stereo unspecified) | inconclusive: 20.3% |
| Fc1ccc(-c2cn(-c3ccccc3)c3[n+]2CCS3)cc1 | inactive: -6.58% |
| CC(Oc1ccc2c(-c3ccccc3)cc(=O)oc2c1)C(=O)NCC1CCC(C(=O)O)CC1 (stereo unspecified) | inconclusive: 56.9% |
| Cc1ccccc1OCCCC(=O)Nc1ccc(S(=O)(=O)Nc2onc(C)c2C)cc1 | inconclusive: 20.8% |
| CCCCCC(=O)N1CCN(S(=O)(=O)c2ccc3c(c2)OCCCO3)CC1 | inconclusive: 62.2% |
| N#C[C@@H]1N[C@H](CO)[C@@H]1c1ccc(C#Cc2ccccc2F)cc1 | inactive: 1.82% |
| CCOC(=O)[C@@H]1[C@H]2COc3ccc(Br)cc3[C@@H]2N2C(=O)N(c3ccc(Cl)cc3)C(=O)[C@@]12C | inconclusive: 73.7% |
| COc1ccccc1NS(=O)(=O)c1cc(-c2cc(C)no2)ccc1OC | inconclusive: 25.5% |
| COc1cc(C(=O)N/N=C/c2ccccn2)cc(OC)c1OC | inconclusive: 54.8% |
| CC(=O)c1cccc(OCC(O)CNCCc2ccc(Cl)cc2)c1 (stereo unspecified) | inconclusive: 21% |
| O=C(CSc1n[nH]c(-c2ccccn2)n1)Nc1ccc(F)cc1 | inactive: 0.556% |
| COc1ccc(N(C)C(=O)CN(C)S(=O)(=O)c2ccc3c(c2)c(=O)n(C)c(=O)n3C)c(OC)c1 | inconclusive: 22.4% |
| C[C@@H]1CN([C@@H](C)CO)C(=O)Cc2cc(NC(=O)Cc3ccccc3)ccc2O[C@H]1CN(C)C(=O)Nc1cccc2ccccc12 | active: 43.4% |
| O=C(Nc1ccccc1N1CCOCC1)C1=NN(c2ccccc2)C(=O)CC1 | active: 69.1% |
| COc1ccc(CN(C)C[C@@H]2Oc3ccc(NC(=O)Nc4ccc5c(c4)OCO5)cc3C(=O)N([C@H](C)CO)C[C@H]2C)cc1 | inactive: -3.15% |
| O=C1C(O)=C(O)C(=O)c2ccccc21 | inconclusive: 20.9% |
| O=C1OC(c2ccccc2)(c2cc(Br)ccc2O)c2ccccc21 (stereo unspecified) | inconclusive: 36.4% |
| C[C@H]1CN([C@@H](C)CO)C(=O)c2cc(-c3ccncc3)cnc2O[C@H]1CN(C)C(=O)c1ccccc1F | inconclusive: 4.92% |
| C[C@@H]1CN([C@@H](C)CO)C(=O)Cc2cc(NS(=O)(=O)c3ccc(F)cc3)ccc2O[C@@H]1CN(C)Cc1ccc(C(=O)Nc2ccccc2N)cc1 | inactive: -9.85% |

Given with bars between the fields: entries from further up.
Compound | CPE inhibition
O=C(CSc1n[nH]c(-c2ccccn2)n1)Nc1ccc(F)cc1 | inactive: 0.556%
COc1ccc(N(C)C(=O)CN(C)S(=O)(=O)c2ccc3c(c2)c(=O)n(C)c(=O)n3C)c(OC)c1 | inconclusive: 22.4%

Reference: PubChem BioAssay AID651640 (Broad Institute, 2012)
